Results as given in the supplement of paper PMC10849652.
Some of the results follow.

Chains of the proteins cited; added tags and fusions are not shown. Lines headed by an entry give the natural chain unless they say otherwise; changes in a name come on top.
UniProt Q9BV40: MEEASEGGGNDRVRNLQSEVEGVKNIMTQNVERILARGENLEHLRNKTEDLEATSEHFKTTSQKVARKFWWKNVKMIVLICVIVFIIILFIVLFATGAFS
UniProt Q9HA47: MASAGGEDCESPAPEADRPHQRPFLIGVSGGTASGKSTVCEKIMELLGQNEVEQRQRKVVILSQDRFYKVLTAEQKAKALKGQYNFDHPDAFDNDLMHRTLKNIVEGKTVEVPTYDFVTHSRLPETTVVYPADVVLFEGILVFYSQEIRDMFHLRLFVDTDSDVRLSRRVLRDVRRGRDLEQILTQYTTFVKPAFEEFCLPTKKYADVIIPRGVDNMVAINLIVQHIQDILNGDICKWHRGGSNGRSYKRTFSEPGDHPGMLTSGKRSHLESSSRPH
UniProt Q14694, whole entry, looked up: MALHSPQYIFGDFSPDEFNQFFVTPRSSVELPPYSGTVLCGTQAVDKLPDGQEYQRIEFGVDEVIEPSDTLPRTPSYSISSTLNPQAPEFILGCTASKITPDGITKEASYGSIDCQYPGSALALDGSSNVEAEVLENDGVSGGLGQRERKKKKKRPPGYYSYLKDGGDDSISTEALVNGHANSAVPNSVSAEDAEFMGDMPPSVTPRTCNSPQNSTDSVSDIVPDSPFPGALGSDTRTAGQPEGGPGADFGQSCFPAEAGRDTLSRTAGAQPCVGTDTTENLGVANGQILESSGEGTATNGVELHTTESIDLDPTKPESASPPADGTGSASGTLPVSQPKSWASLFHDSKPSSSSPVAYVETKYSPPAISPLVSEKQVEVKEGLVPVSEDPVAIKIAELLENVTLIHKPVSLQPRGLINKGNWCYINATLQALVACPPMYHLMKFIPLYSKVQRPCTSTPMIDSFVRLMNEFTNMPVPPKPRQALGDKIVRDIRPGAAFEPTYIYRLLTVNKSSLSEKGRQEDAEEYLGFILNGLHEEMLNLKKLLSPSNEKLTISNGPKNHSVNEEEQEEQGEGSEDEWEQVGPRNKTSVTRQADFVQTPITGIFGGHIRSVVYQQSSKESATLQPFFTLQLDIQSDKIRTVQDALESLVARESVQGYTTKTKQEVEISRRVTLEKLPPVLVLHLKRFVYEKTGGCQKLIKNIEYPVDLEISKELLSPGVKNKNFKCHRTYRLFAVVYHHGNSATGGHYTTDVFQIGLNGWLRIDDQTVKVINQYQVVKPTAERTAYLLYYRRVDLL
UniProt P10746: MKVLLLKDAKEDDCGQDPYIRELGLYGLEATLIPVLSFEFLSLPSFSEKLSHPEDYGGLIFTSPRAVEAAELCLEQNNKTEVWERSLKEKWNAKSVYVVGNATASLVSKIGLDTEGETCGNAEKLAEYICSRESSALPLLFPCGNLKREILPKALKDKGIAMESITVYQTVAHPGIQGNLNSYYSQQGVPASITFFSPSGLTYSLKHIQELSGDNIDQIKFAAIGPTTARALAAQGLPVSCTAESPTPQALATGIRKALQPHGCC
UniProt P14927: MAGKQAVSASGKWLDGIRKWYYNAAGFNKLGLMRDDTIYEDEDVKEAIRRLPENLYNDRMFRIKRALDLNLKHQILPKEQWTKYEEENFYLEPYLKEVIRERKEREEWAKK
UniProt Q8N806: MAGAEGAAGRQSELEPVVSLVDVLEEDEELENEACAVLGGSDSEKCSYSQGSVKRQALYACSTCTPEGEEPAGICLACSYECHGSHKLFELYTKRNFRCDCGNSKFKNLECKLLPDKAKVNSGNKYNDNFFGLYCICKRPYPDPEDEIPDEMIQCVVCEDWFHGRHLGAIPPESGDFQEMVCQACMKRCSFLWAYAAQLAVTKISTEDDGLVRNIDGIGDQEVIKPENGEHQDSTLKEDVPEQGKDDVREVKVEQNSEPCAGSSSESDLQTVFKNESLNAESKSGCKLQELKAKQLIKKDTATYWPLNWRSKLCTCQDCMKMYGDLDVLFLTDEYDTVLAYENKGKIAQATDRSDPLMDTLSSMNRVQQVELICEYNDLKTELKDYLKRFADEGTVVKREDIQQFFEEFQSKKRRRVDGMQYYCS
UniProt Q08AM6: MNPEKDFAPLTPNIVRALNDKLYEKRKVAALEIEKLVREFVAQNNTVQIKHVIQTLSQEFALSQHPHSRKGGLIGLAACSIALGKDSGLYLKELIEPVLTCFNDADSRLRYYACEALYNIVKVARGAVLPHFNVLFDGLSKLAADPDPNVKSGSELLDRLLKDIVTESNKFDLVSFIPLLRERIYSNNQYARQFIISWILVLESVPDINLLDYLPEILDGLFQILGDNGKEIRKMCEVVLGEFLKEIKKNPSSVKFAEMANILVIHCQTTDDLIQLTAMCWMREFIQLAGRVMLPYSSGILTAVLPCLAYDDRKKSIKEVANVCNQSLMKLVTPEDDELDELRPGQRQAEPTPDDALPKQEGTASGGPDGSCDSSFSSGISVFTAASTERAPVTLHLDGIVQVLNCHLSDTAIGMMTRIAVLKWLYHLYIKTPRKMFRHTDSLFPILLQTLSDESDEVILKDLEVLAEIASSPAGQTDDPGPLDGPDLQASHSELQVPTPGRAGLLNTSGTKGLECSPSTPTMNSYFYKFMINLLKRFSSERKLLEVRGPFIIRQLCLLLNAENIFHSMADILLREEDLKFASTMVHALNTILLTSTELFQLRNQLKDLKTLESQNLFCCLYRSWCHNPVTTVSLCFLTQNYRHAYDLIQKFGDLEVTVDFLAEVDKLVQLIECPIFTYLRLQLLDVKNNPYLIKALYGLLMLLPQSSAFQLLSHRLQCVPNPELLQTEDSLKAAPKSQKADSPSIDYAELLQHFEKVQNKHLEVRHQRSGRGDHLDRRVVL
UniProt Q92900: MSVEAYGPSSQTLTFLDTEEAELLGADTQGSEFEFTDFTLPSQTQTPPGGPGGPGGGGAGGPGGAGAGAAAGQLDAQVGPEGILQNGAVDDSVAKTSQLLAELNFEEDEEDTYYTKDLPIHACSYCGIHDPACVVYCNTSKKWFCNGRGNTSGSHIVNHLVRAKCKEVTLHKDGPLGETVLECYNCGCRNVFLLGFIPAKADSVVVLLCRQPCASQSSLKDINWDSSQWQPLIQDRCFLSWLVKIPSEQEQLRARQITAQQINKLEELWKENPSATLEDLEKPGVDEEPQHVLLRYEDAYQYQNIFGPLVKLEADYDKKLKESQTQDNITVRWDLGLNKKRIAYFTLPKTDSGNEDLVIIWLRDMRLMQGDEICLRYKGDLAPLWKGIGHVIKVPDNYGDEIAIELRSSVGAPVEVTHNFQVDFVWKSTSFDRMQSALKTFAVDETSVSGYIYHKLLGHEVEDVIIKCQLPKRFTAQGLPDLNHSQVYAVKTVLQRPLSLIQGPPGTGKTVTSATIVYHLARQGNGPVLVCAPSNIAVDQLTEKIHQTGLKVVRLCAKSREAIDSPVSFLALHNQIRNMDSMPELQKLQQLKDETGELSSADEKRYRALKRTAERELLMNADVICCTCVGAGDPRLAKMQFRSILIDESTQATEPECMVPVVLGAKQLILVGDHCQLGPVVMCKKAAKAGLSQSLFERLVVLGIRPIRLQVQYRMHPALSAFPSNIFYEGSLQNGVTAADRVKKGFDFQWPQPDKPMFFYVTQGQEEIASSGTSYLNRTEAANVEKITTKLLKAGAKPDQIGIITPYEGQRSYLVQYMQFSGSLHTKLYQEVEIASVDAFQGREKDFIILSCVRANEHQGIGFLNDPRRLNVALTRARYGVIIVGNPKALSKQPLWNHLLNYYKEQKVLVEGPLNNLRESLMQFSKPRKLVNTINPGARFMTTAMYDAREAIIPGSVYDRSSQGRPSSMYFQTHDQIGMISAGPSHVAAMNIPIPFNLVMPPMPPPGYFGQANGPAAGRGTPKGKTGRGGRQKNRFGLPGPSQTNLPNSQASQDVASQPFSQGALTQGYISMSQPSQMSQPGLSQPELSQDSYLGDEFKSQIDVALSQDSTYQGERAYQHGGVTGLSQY
UniProt P40818: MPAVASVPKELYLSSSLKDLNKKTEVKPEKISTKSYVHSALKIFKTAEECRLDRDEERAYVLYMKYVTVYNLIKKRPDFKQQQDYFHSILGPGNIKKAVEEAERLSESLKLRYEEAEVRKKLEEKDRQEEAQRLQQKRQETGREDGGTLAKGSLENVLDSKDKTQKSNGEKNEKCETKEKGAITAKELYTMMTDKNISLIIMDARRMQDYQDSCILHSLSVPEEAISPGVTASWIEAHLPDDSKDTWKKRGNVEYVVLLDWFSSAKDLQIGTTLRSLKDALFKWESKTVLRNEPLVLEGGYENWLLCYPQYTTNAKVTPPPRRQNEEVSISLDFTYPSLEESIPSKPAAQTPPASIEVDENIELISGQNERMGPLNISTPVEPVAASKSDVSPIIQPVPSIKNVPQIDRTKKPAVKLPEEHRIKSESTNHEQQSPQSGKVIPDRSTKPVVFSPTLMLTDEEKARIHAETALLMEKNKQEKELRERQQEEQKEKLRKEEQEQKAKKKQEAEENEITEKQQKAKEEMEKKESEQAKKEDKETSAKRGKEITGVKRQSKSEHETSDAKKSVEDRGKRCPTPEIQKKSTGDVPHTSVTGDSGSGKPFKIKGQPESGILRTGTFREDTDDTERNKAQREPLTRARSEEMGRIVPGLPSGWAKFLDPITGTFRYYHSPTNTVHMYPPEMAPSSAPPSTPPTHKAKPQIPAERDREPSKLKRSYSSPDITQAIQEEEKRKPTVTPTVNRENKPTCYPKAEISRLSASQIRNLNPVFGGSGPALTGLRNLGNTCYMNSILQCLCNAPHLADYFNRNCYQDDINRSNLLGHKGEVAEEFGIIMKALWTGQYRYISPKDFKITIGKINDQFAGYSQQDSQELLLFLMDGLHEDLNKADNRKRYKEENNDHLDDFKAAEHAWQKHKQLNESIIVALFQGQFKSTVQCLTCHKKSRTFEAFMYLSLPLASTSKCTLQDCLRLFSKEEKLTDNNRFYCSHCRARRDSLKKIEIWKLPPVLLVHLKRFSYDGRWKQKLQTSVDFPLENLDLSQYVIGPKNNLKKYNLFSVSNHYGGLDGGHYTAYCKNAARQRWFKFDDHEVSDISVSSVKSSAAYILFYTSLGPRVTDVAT
UniProt P11172: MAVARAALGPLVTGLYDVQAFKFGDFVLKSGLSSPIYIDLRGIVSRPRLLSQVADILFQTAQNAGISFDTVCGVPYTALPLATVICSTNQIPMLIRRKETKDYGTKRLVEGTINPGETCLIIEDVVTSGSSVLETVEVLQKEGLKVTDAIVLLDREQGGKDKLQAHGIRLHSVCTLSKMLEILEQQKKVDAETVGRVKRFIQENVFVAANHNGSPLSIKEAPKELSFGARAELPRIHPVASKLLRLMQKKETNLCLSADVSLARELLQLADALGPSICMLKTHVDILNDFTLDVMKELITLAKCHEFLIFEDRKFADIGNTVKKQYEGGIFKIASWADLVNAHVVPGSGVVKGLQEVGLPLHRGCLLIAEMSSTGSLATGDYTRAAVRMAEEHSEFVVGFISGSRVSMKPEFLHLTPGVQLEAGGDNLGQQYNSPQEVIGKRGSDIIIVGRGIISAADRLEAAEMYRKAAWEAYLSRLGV
UniProt Q16851: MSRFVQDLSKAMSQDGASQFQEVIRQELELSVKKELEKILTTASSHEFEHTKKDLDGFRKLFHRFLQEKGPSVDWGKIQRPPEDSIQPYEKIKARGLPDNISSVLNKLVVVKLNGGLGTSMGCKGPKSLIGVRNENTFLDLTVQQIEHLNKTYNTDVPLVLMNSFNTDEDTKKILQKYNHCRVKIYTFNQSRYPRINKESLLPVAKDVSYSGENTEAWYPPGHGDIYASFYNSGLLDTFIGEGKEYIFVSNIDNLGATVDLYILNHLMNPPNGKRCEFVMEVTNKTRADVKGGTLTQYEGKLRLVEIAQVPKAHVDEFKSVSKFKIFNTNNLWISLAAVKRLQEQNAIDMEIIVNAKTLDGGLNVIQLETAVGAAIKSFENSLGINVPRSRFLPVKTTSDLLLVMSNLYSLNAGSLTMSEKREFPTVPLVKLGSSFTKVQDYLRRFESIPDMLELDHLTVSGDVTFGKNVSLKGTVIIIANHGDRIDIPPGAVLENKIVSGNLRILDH
UniProt Q9UMX0, whole entry, looked up: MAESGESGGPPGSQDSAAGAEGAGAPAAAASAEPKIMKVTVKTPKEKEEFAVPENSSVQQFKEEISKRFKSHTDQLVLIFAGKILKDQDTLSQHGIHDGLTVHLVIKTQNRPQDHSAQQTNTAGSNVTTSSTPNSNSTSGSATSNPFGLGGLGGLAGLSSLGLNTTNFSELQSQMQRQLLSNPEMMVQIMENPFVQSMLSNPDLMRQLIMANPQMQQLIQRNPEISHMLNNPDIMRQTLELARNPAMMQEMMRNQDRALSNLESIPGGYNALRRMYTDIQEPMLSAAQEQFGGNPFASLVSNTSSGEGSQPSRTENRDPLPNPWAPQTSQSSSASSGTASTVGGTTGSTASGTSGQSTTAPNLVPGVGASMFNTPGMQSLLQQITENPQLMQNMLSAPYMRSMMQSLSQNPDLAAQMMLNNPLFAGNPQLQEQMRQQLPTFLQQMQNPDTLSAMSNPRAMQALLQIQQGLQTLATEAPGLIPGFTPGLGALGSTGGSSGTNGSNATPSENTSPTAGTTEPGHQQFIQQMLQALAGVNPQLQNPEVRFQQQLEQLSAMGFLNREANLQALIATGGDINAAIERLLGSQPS

Key:
Assay in all cases: log2 fold change, soluble protein after heating vs DMSO (PISA); higher = thermal stabilisation; K562 cells, 10 uM, 30 min; active = over 0.2 and 3.5 SD of the protein, either way, in both replicates (recomputed)
[1] = compound: COC1=CC=C(C=C1)CN2C=CC3=C2C=C(C=C3)C(=O)NO
Outline: (§1)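 Values are thermal stability changes relative to control samples and are taken from duplicates. They are stated as log2 fold changes. Before quantification by TMTpro 16plex LC-MS/MS with equalised channel sums, K562 cells at 2×10^6 cells/mL were treated with 10 μM compound for 30 min, heated in aliquots for 3 min across 48°C-58°C, pooled, extracted in PBS with 0.5% NP-40 at 4°C, and centrifuged at 21,000xg for 90 min to give the soluble supernatant.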

[2] = compound: CON(C)C(=O)N1N=C(c2cc(F)ccc2F)S[C@@]1(CCCN)c1ccccc1 [filanesib]
Outline: as §1

[3] = compound: CO[C@H]1C[C@@H]2CC[C@@H](C)[C@@](O)(O2)C(=O)C(=O)N2CCCC[C@H]2C(=O)O[C@H]([C@H](C)C[C@@H]2CC[C@H](n3cnnn3)[C@H](OC)C2)CC(=O)[C@H](C)/C=C(\C)[C@@H](O)[C@@H](OC)C(=O)[C@H](C)C[C@H](C)/C=C/C=C/C=C/1C [zotarolimus]
Outline: as §1

[4] = compound: COc1cc(C(=O)O)ccc1NC(=O)[C@@H]1N[C@@H](CC(C)(C)C)[C@](C#N)(c2ccc(Cl)cc2F)[C@H]1c1cccc(Cl)c1F [idasanutlin]
Outline: as §1

[5] = compound: COc1cc(Nc2ncc3c(n2)-c2ccc(Cl)cc2C(c2c(F)cccc2OC)=NC3)ccc1C(=O)O [alisertib]
Outline: as §1

[6] = compound: COc1cc2nc(-c3cc(F)ccc3O)nc(N[C@@H]3CNC[C@H]3C(C)(C)O)c2cc1OC
Outline: as §1

[7] = compound: COc1cc2ncnc(Nc3ccc(F)c(Cl)c3)c2cc1OCCCN1CCOCC1 [gefitinib]
Outline: as §1

[8] = compound: COc1cccc2cc(-c3nc([C@H]4CC[C@H](C(=O)O)CC4)n4ncnc(N)c34)[nH]c12
Outline: as §1

[9] = compound: CS(=O)(=O)CCNCc1ccc(-c2ccc3ncnc(Nc4ccc(OCc5cccc(F)c5)c(Cl)c4)c3c2)o1 [lapatinib]
Outline: as §1

[10] = compound: CS(=O)(=O)N1CCN(Cc2cc3nc(-c4cccc5[nH]ncc45)nc(N4CCOCC4)c3s2)CC1 [pictilisib]
Outline: as §1

Measured: log2 fold change

UFM1 (UniProt P61960)
inactive: [1] 0.048 | [2] -0.08 | [3] -0.139 | [4] 0.28 | [5] -0.001 | [6] 0.01 | [7] 0.069 | [8] 0.055 | [9] -0.002

VAMP8 (UniProt Q9BV40)
inactive: [1] -0.048 | [2] -0.082 | [3] -0.004 | [4] -0.01 | [5] -0.01 | [6] -0.059 | [7] 0.008 | [8] 0.044 | [9] -0.017 | [10] 0.026

USF2 (UniProt Q15853)
inactive: [1] 0.101 | [2] -0.042 | [3] 0.014 | [4] 0.016 | [5] -0.22 | [6] 0.007 | [7] 0.077 | [8] -0.1 | [9] -0.027 | [10] -0.018

UBR2 (UniProt Q8IWV8)
inactive: [1] -0.016 | [2] 0.027 | [3] -0.105 | [4] 0.054 | [5] -0.041 | [6] 0.024 | [7] -0.021 | [8] 0.061 | [9] 0.052 | [10] 0.036

USP34 (UniProt Q70CQ2)
inactive: [1] 0.021 | [2] 0.011 | [3] -0.03 | [4] -0.239 | [5] 0.021 | [6] 0 | [7] -0.024 | [8] -0.073 | [9] 0.011 | [10] 0.135

USP9X (UniProt Q93008)
inactive: [1] -0.02 | [2] -0.017 | [3] 0.018 | [4] -0.096 | [5] -0.02 | [6] 0.029 | [7] -0.007 | [8] -0.008 | [9] -0.027 | [10] -0.033

UCHL5 isoform 3 (UniProt Q9Y5K5)
inactive: [1] 0.229 | [2] -0.13 | [3] 0.227 | [4] 0.057 | [5] 0.072 | [6] 0.036 | [7] -0.04 | [8] 0.16 | [9] -0.07

UCK1 (UniProt Q9HA47)
inactive: [1] -0.012 | [2] -0.076 | [3] -0.015 | [4] -0.03 | [5] -0.029 | [6] -0.042 | [7] 0.005 | [8] -0.039 | [9] -0.043 | [10] -0.051

USP10 isoform 2 (UniProt Q14694)
inactive: [1] -0.024 | [2] 0.086 | [3] 0.02 | [4] 0.045 | [5] -0.089 | [6] 0.019 | [7] -0.006 | [8] -0.008 | [9] 0.002 | [10] -0.026

UROS (UniProt P10746)
inactive: [1] 0.005 | [2] -0.005 | [3] 0.101 | [4] -0.019 | [5] -0.064 | [6] 0.049 | [7] 0.001 | [8] -0.075 | [9] -0.042 | [10] -0.042

UFSP2 (UniProt Q9NUQ7)
inactive: [1] -0.011 | [2] -0.04 | [3] 0.088 | [4] -0.026 | [5] -0.028 | [6] 0.157 | [7] 0.006 | [8] 0.002 | [9] 0.017 | [10] -0.006

Quoted at random: 2 entries already listed
UFM1 (UniProt P61960)
inactive: [1] 0.048 | [2] -0.08 | [3] -0.139 | [4] 0.28 | [5] -0.001 | [6] 0.01 | [7] 0.069 | [8] 0.055 | [9] -0.002

UBR2 (UniProt Q8IWV8)
inactive: [1] -0.016 | [2] 0.027 | [3] -0.105 | [4] 0.054 | [5] -0.041 | [6] 0.024 | [7] -0.021 | [8] 0.061 | [9] 0.052 | [10] 0.036

Additional entries follow:

USP47 (UniProt Q96K76)
inactive: [1] 0.056 | [2] 0.087 | [3] 0.061 | [4] 0.03 | [5] -0.148 | [6] -0.019 | [7] 0.007 | [8] -0.159 | [9] 0.08 | [10] -0.007

UBE3C (UniProt Q15386)
inactive: [1] 0.05 | [2] -0.038 | [3] 0.033 | [4] -0.082 | [5] -0.061 | [6] -0.005 | [7] 0.069 | [8] 0.001 | [9] 0.028 | [10] -0.04

UQCRB (UniProt P14927)
inactive: [1] -0.016 | [2] 0.007 | [3] -0.02 | [4] 0 | [5] -0.018 | [6] 0.005 | [7] -0.003 | [8] 0.031 | [9] -0.012 | [10] -0.003

UBR4 isoform 2 (UniProt Q5T4S7)
inactive: [1] 0.023 | [2] 0.059 | [3] 0.031 | [4] 0.047 | [5] -0.088 | [6] -0.005 | [7] -0.037 | [8] -0.094 | [9] 0.032 | [10] -0.02

UBXN4 (UniProt Q92575)
inactive: [1] -0.027 | [2] -0.045 | [3] -0.061 | [4] -0.077 | [5] 0.009 | [6] 0.072 | [7] 0.019 | [8] 0.055 | [9] 0.013 | [10] 0.067

UBR7 (UniProt Q8N806)
inactive: [1] 0 | [2] 0.18 | [3] 0.002 | [4] 0.003 | [5] -0.031 | [6] 0.046 | [7] -0.011 | [8] -0.018 | [9] 0.019 | [10] 0.025

UBL5 (UniProt Q9BZL1)
inactive: [1] -0.042 | [2] 0.02 | [3] 0.046 | [4] 0.03 | [5] -0.069 | [6] 0.067 | [7] 0.046 | [8] -0.007 | [9] -0.002 | [10] 0.04

UBFD1 (UniProt O14562)
inactive: [1] -0.011 | [2] -0.012 | [3] 0.018 | [4] -0.083 | [5] 0.016 | [6] 0.068 | [7] 0.027 | [8] 0.021 | [9] -0.03 | [10] 0.056

VCP (UniProt P55072)
inactive: [1] -0.022 | [2] -0.022 | [3] -0.018 | [4] -0.001 | [5] -0.067 | [6] -0.001 | [7] -0.012 | [8] 0.042 | [9] -0.01 | [10] 0.008

VAC14 (UniProt Q08AM6)
inactive: [1] 0.006 | [2] -0.115 | [3] -0.013 | [4] -0.061 | [5] -0.02 | [6] -0.005 | [7] -0.033 | [8] 0.048 | [9] 0.037 | [10] 0.014

USP14 (UniProt P54578)
inactive: [1] 0.023 | [2] -0.035 | [3] 0.04 | [4] -0.051 | [5] -0.057 | [6] -0.008 | [7] 0.007 | [8] -0.043 | [9] 0.031 | [10] 0.026

UPF1 (UniProt Q92900)
inactive: [1] 0 | [2] 0.015 | [3] 0.01 | [4] -0.016 | [5] -0.07 | [6] 0.099 | [7] -0.014 | [8] -0.045 | [9] -0.049 | [10] -0.024

VARS2, A0A0G2JL52
inactive: [1] 0.061 | [2] -0.078 | [3] 0.001 | [4] -0.04 | [5] -0.01 | [6] -0.017 | [7] -0.009 | [8] 0.064 | [9] 0.022 | [10] 0.024

USP8 (UniProt P40818)
inactive: [1] -0.028 | [2] -0.174 | [3] 0.043 | [4] 0.016 | [5] -0.013 | [6] -0.019 | [7] -0.059 | [8] -0.16 | [9] 0.08 | [10] 0.039

UMPS (UniProt P11172)
inactive: [1] 0.015 | [2] -0.066 | [3] -0.031 | [4] -0.026 | [5] -0.042 | [6] 0.024 | [7] 0.027 | [8] 0.008 | [9] -0.006 | [10] 0.033

UGP2 (UniProt Q16851)
inactive: [1] 0.018 | [2] -0.035 | [3] -0.01 | [4] -0.025 | [5] -0.039 | [6] 0.019 | [7] 0.016 | [8] 0.029 | [9] 0 | [10] 0.133

UFC1 (UniProt Q9Y3C8)
inactive: [1] 0.007 | [2] 0.001 | [3] 0.005 | [4] -0.007 | [5] -0.069 | [6] 0.062 | [7] 0.003 | [8] -0.039 | [9] -0.045 | [10] -0.06

UBQLN1 (UniProt Q9UMX0)
inactive: [1] -0.034 | [2] -0.01 | [3] -0.035 | [4] 0.014 | [5] -0.067 | [6] -0.046 | [7] 0.005 | [8] 0.081 | [9] 0.03 | [10] -0.013

USP19 isoform 6 (UniProt O94966)
inactive: [1] -0.015 | [2] 0.016 | [3] 0.016 | [4] -0.038 | [5] -0.044 | [6] 0.058 | [7] -0.008 | [8] -0.027 | [9] -0.026 | [10] -0.025
